PubChem BioAssay AID330 (DTP/NCI, 2004)
The list is a part of this screen's results and no random one: it gathers tests that were run many times, whatever their T/C, doses with no T/C, and many T/C values between a quarter and a half above the control. Further doses and runs are listed elsewhere. T/C: endpoint of the treated group in % of that of the vehicle group. Some entries give survivors of the animals treated and no T/C: the source files T/C as zero there, which appears to mark a toxic dose or a test without result, not a measured value. Some doses without a T/C left all or most animals alive at the check, yet need not have been tolerated: survival well below the control is almost never listed, so the zero probably covers shortened survival too. Counts of survivors are from the toxicity check (mostly the fifth day) where no day follows; animals may have died later. Schedule codes are those of the source, taken here to give the interval after Q, in days (D) or hours (H), and the number of doses after X. Some entries were tested several times; the values are given in rising order. For survival time, the PubChem record calls one and a half times the control and up active, and a quarter to a half above the control has no call in these data; cut-offs in other NCI protocols can differ. Brackets with × say how often a value occurs here. Some T/C values carry the count of animals alive at the toxicity check (mostly the fifth day); where none is given, no animal had died by that day.

Tested on: P388 leukemia ip, CD2F1 mice, survival T/C
Assay: NCI In Vivo Anticancer Drug Screen. Data for tumor model P388 Leukemia (intraperitoneal) in CD2F1 (CDF1) mice
Conditions: T/C endpoint: median survival time, higher T/C = longer survival
[1] = dose: 12.0 mg/kg/injection, schedule: Q04DX003 (ip), vehicle: saline

Question: What does the source list for `COc1cccc2c1C(=O)c1c(O)c3c(c(O)c1C2=O)C[C@@](O)(C(=O)CO)C[C@@H]3OC1CC(N)C(O)C(C)O1` (some centres not stated)?
Answer: T/C (dose: 10.0 mg/kg/injection, schedule: Q01DX001 (ip), vehicle: saline, evaluated on day 30): 128, 144, 153, 158, 163, 168, 171, 173, 183, 185, 187, 188, 189, 191, 200, 202, 205, 207, 210 (3×), 211, 214, 215, 217, 218 (2×), 222, 223 (2×), 225, 227, 230, 233, 234, 236, 237 (2×), 238, 240 (2×), 242, 245 (2×), 247, 248 (2×), 250, 258, 267, 273, 274, 275, 277, 283, 294 % of control; T/C (dose: 10.0 mg/kg/injection, schedule: Q01DX001 (ip), vehicle: saline, evaluated on day 44): 247 % of control; T/C (dose: 10.0 mg/kg/injection, schedule: Q01DX001 (ip), vehicle: saline, evaluated on day 45): 166 [9 of 10 alive], 171, 177, 205, 214, 225, 233, 241, 268, 346 % of control; T/C (dose: 10.0 mg/kg/injection, schedule: Q01DX001 (ip), vehicle: saline, evaluated on day 46): 196 % of control; T/C (dose: 10.0 mg/kg/injection, schedule: Q01DX001 (ip), vehicle: saline, evaluated on day 47): 209 and 210 % of control; T/C (dose: 10.0 mg/kg/injection, schedule: Q01DX001 (ip), vehicle: saline, evaluated on day 56): 238 % of control; T/C (dose: 10.0 mg/kg/injection, schedule: Q01DX001 (ip), vehicle: saline, evaluated on day 60): 178, 193, 207, 234, 245, 252, 265, 267, 268, 285, 294 [9 of 10 alive], 321, 324, 348, 571 % of control; survivor count (dose: 10.0 mg/kg/injection, schedule: Q01DX001 (ip), vehicle: saline): 0 of 6; T/C (dose: 10.0 mg/kg/injection, schedule: Q01DX001 (ip), vehicle: water, evaluated on day 5): 130 % of control; T/C (dose: 10.0 mg/kg/injection, schedule: Q01DX001 (ip), vehicle: water, evaluated on day 30): 209, 245, 315 % of control; T/C (dose: 10.0 mg/kg/injection, schedule: Q01DX001 (ip), vehicle: water, evaluated on day 45): 142, 145, 176, 195, 208 [5 of 6 alive], 214, 225, 247 % of control; T/C (dose: 10.0 mg/kg/injection, schedule: Q04DX003 (ip), vehicle: saline, evaluated on day 8): 194 % of control; T/C (dose: 10.0 mg/kg/injection, schedule: Q04DX003 (ip), vehicle: saline, evaluated on day 9): 167 % of control; T/C (dose: 10.0 mg/kg/injection, schedule: Q04DX003 (ip), vehicle: saline, evaluated on day 45): 90 and 97 % of control; survivor count (dose: 10.0 mg/kg/injection, schedule: Q04DX003 (ip), vehicle: saline): 10 of 10 and 6 of 6; T/C (dose: 11.25 mg/kg/injection, schedule: Q01DX001 (iv), vehicle: saline): 148 % of control; T/C [1]: 137, 148, 155 [survivors not given], 194 % of control [survivors not given]; survivor count [1]: 7 of 8; T/C (dose: 12.0 mg/kg/injection, schedule: Q04DX003 (ip), vehicle: water, evaluated on day 30): 180 % of control; T/C (dose: 12.0 mg/kg/injection, schedule: Q04DX003 (ip), vehicle: water, evaluated on day 40): 136 % of control; T/C (dose: 12.0 mg/kg/injection, schedule: Q04DX003 (ip), vehicle: water, evaluated on day 45): 187 % of control; survivor count (dose: 12.0 mg/kg/injection, schedule: Q04DX003 (ip), vehicle: water): 6 of 8; T/C (dose: 12.5 mg/kg/injection, schedule: Q01DX001 (ip), vehicle: saline, evaluated on day 5): 260 and 297 % of control; T/C (dose: 12.5 mg/kg/injection, schedule: Q01DX001 (ip), vehicle: saline, evaluated on day 7): 200 % of control; T/C (dose: 12.5 mg/kg/injection, schedule: Q01DX001 (ip), vehicle: saline, evaluated on day 9): 173 % of control [8 of 9 alive]; T/C (dose: 12.5 mg/kg/injection, schedule: Q01DX001 (ip), vehicle: saline, evaluated on day 60): 236, 284, 540, 545 % of control; survivor count (dose: 12.5 mg/kg/injection, schedule: Q01DX001 (ip), vehicle: saline): 5 of 10; survivor count (dose: 12.5 mg/kg/injection, schedule: Q01DX009 (ip), vehicle: water): 4 of 6; T/C (dose: 15.0 mg/kg/injection, schedule: Q01DX001 (ip), vehicle: saline, evaluated on day 5): 156, 186, 557 % of control; T/C (dose: 15.0 mg/kg/injection, schedule: Q01DX001 (ip), vehicle: saline, evaluated on day 6): 106 and 200 % of control; T/C (dose: 15.0 mg/kg/injection, schedule: Q01DX001 (ip), vehicle: saline, evaluated on day 7): 198 % of control; T/C (dose: 15.0 mg/kg/injection, schedule: Q01DX001 (ip), vehicle: saline, evaluated on day 9): 198 % of control (2×); T/C (dose: 15.0 mg/kg/injection, schedule: Q01DX001 (ip), vehicle: saline, evaluated on day 11): 162 % of control; T/C (dose: 15.0 mg/kg/injection, schedule: Q01DX001 (ip), vehicle: saline, evaluated on day 20): 147 [2 of 4 alive] and 192 % of control; T/C (dose: 15.0 mg/kg/injection, schedule: Q01DX001 (ip), vehicle: saline, evaluated on day 23): 214 % of control; T/C (dose: 15.0 mg/kg/injection, schedule: Q01DX001 (ip), vehicle: saline, evaluated on day 30): 152, 156, 169, 173, 175, 183, 191, 191 [4 of 5 alive], 198, 200, 215 (2×), 217, 221, 222, 231, 236, 237, 239, 240, 242, 245 (2×), 247, 248, 250 (2×), 254 (2×), 255, 257, 260, 263, 264 (2×), 265, 267, 270, 272 (2×), 273, 274, 275, 277, 279, 283, 284, 288, 291, 294 (2×), 295, 297, 300, 306, 329 % of control; T/C (dose: 15.0 mg/kg/injection, schedule: Q01DX001 (ip), vehicle: saline, evaluated on day 44): 419 % of control; T/C (dose: 15.0 mg/kg/injection, schedule: Q01DX001 (ip), vehicle: saline, evaluated on day 45): 191, 200 [7 of 10 alive], 209, 255, 261, 405, 412 (2×), 432 % of control; T/C (dose: 15.0 mg/kg/injection, schedule: Q01DX001 (ip), vehicle: saline, evaluated on day 46): 273 % of control; T/C (dose: 15.0 mg/kg/injection, schedule: Q01DX001 (ip), vehicle: saline, evaluated on day 47): 275 and 289 % of control; T/C (dose: 15.0 mg/kg/injection, schedule: Q01DX001 (ip), vehicle: saline, evaluated on day 56): 292 % of control; T/C (dose: 15.0 mg/kg/injection, schedule: Q01DX001 (ip), vehicle: saline, evaluated on day 60): 248, 271, 273, 290, 304, 306, 317, 331 [9 of 10 alive], 392, 401, 545 [9 of 10 alive], 612 % of control; survivor count (dose: 15.0 mg/kg/injection, schedule: Q01DX001 (ip), vehicle: saline): 0 of 6, 5 of 10, 6 of 10; T/C (dose: 15.0 mg/kg/injection, schedule: Q01DX001 (iv), vehicle: saline): 146 % of control; survivor count (dose: 16.0 mg/kg/injection, schedule: Q01DX001 (ip), vehicle: other): 1 of 10; T/C (dose: 16.0 mg/kg/injection, schedule: Q01DX001 (ip), vehicle: saline, evaluated on day 3): 230 % of control; T/C (dose: 16.0 mg/kg/injection, schedule: Q01DX001 (ip), vehicle: saline, evaluated on day 5): 68, 93, 96, 138, 182, 183, 201, 203 % of control; T/C (dose: 16.0 mg/kg/injection, schedule: Q01DX001 (ip), vehicle: saline, evaluated on day 7): 77, 80 [2 of 4 alive], 89, 194 % of control; T/C (dose: 16.0 mg/kg/injection, schedule: Q01DX001 (ip), vehicle: saline, evaluated on day 9): 183 and 212 % of control; T/C (dose: 16.0 mg/kg/injection, schedule: Q01DX001 (ip), vehicle: saline, evaluated on day 30): 201 (2×) and 291 % of control; T/C (dose: 16.0 mg/kg/injection, schedule: Q01DX001 (ip), vehicle: saline, evaluated on day 35): 190 % of control; T/C (dose: 16.0 mg/kg/injection, schedule: Q01DX001 (ip), vehicle: saline, evaluated on day 45): 171 % of control
